From publication PMC5335694
No constants are given. Whether binding was seen depends on the method and setting. Binding seen in cells or lysates may run through a third protein. Some results given as binding are weak or reduced against the parent protein; the word gives no strength. Tags and fused reporters may be left off the sequences shown.

Target: T1, myc-TTC5 (UniProt Q99LG4)
T1 sequence: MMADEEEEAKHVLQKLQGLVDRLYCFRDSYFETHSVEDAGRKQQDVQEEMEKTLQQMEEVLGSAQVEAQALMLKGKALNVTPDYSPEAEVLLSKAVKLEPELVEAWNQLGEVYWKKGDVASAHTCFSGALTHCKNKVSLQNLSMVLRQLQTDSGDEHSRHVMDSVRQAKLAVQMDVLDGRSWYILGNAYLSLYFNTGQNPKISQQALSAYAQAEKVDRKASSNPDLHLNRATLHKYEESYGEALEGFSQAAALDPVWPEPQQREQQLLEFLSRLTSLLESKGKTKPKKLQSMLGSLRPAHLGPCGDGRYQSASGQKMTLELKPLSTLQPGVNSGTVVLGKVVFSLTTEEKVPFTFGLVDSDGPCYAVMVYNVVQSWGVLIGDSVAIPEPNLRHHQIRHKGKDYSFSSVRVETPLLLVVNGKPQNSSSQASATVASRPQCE
Experiment: co-IP; lysates of 293T cells over-expressing myc-TTC5 and EGFP-TRIP13; immunoprecipitation with anti-c-Myc magnetic beads, blots probed for TTC5 and EGFP

binding: binds
B1: EGFP-TRIP13 (protein, UniProt Q3UA06 1-432)
chain: MDEAVGDLKQALPCVAESPAVHVEVLQRSGSTAKKEDIKSSVYRLLNRHNIVFGDYVWTEFDDPFLSRNVQSVSIVDTELKAKDPQPIDLSACTIALHIFQLNEEGPSSENLDEETENIIAASHWVLPAAEFHGLWDSLVYDVEVKSHLLDYVMTTVLFSDKNVDSNLITWNRVVLLHGPPGTGKTSLCKALAQKLTIRLSSRYRYGQLIEINSHSLFSKWFSESGKLVTKMFQKIQDLIDDKEALVFVLIDEVESLTAARNACRAGAEPSDAIRVVNAVLTQIDQIKRHSNVVILTTSNITEKIDVAFVDRADIKQYIGPPSAAAIFKIYLSCLEELMKCQIIYPRQQLLTLRELEMIGFIENNVSKLSLLLSEISRKSEGLSGRVLRKLPFLAHALYIQAPSVTIEGFLQALSLAVDKQFEEKKKLSAYV
